Laboratory results: PubChem BioAssay AID504774 (Drosophila RNAi Screening Center, 2011)
The deposit covers about 23,000 reagents; shown is an unselected part of those that have a named target and a result. 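Values are quantile-normalised luminescence on an arbitrary scale; higher means more cells surviving MMS.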 Reagent sequences are not shown.

Aim: 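Genes required for cells to withstand methyl methanesulphonate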 (primary screen)
Cell system: Drosophila Kc167 cells
Reagents: long dsRNA against Drosophila genes, about 0.25 µg dsRNA per well
Time to read-out: about 6 days: 3 days knock-down, then 3 days with or without MMS
Conditions: methyl methanesulphonate 0.004% (w/v) for 3 days after knock-down
Detection: 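Viability in wells given MMS, read as ATP luminescence, normalised by quantiles plate by plate and averaged across replicates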
Reading the numbers: mean viability with MMS and viability with MMS: higher = more surviving cells after MMS

predicted target,DRSC id,mean viability with MMS,"viability with MMS, replicate 1","viability with MMS, replicate 2"
CG10920,DRSC17765,3.43e6,3.71e6,4.07e6
psq,DRSC07668,2.77e6,3.49e6,3.49e6
psq,DRSC23094,3.64e6,3.93e6,4.34e6
milt,DRSC00965,3.24e6,3.64e6,3.67e6
milt,DRSC00966,3.31e6,3.68e6,3.83e6
milt,DRSC02281,3.65e6,4.23e6,4.08e6
aly,DRSC08707,3.61e6,4.06e6,4.10e6
aly,DRSC21784,3.29e6,3.83e6,3.78e6
Mur89F,DRSC15544,3.46e6,3.93e6,3.90e6
CG1309,DRSC08302,3.60e6,4.10e6,4.07e6
Prosalpha3,DRSC04644,3.27e6,3.75e6,3.69e6
Sardh,DRSC06981,3.56e6,3.98e6,4.08e6
CG12259,DRSC14486,3.56e6,4.04e6,4.03e6
CG12259,DRSC23281,3.55e6,4.01e6,4.07e6
CG6362,DRSC07413,3.52e6,3.85e6,4.14e6
FLASH,DRSC06872,1.87e6,4.06e6,4.01e6
Hsp60B,DRSC00542,3.54e6,4.05e6,3.96e6
ebi,DRSC00816,3.70e6,4.26e6,4.18e6
CG7246,DRSC18422,1.66e6,3.85e6,
RpS28b,DRSC18258,3.08e6,3.37e6,3.50e6
CG8851,DRSC00718,3.65e6,4.27e6,3.96e6
CG12347,DRSC14502,3.65e6,4.23e6,4.04e6
Cpr72Ea,DRSC10451,3.57e6,4.05e6,4.04e6
CG14655,DRSC12241,1.94e6,4.08e6,4.11e6
CG40485,DRSC20624,3.44e6,3.90e6,3.92e6
CG16898,DRSC06635,3.49e6,3.91e6,3.99e6
mGluR,DRSC17215,3.48e6,3.88e6,4.02e6
CG31287,DRSC13138,3.51e6,4.04e6,3.93e6
CG32579,DRSC19872,3.47e6,3.94e6,3.91e6
CG12541,DRSC17483,3.43e6,3.95e6,3.86e6
CG12541,DRSC17839,3.74e6,4.05e6,4.43e6
CG7137,DRSC07017,3.59e6,4.13e6,4.02e6
l(2)37Cb,DRSC02095,3.53e6,3.91e6,4.09e6
CG5726,DRSC06946,3.44e6,3.85e6,3.96e6
TfIIB,DRSC03454,2.83e6,3.46e6,3.46e6
Ppi1,DRSC15421,3.46e6,3.95e6,3.91e6

Copied from the list.
Under “mean viability with MMS”, aly [DRSC08707] has 3.61e6
Ppi1 [DRSC15421], mean viability with MMS = 3.46e6
Under “viability with MMS, replicate 2”, FLASH [DRSC06872] has 4.01e6
Sardh [DRSC06981], viability with MMS, replicate 2 → 4.08e6

The list goes on.
predicted target,DRSC id,mean viability with MMS,"viability with MMS, replicate 1","viability with MMS, replicate 2"
Torsin,DRSC18570,1.70e6,4.01e6,3.79e6
scramb2,DRSC08543,3.53e6,3.94e6,4.05e6
sqa,DRSC06693,3.68e6,4.21e6,4.13e6
sqa,DRSC21635,3.70e6,4.24e6,4.09e6
CG12010,DRSC08218,3.85e6,4.39e6,4.23e6
AlaRS-m,DRSC09660,3.56e6,4.05e6,4.04e6
CG11961,DRSC06099,3.69e6,4.14e6,4.22e6
Cdc42,DRSC20228,3.44e6,3.93e6,3.89e6
CG17732,DRSC10283,3.57e6,3.97e6,4.11e6
CG9284 (retired record),DRSC03899,3.43e6,3.84e6,3.96e6
CG9284 (retired record),DRSC04536,3.61e6,4.11e6,4.12e6
Arl2,DRSC14117,3.47e6,3.93e6,3.96e6
Mcm10,DRSC03162,3.66e6,4.33e6,4.01e6
Sec13,DRSC14144,3.36e6,3.82e6,3.83e6
ssp5,DRSC14955,3.79e6,4.30e6,4.29e6
CG12177,DRSC19437,3.53e6,3.94e6,4.04e6
CG12177,DRSC21524,3.69e6,4.22e6,4.10e6
CG33233,DRSC08239,3.49e6,4.00e6,3.91e6
CG4880,DRSC19923,3.68e6,4.21e6,4.18e6
CG9109,DRSC03139,3.43e6,3.82e6,3.87e6
Samuel,DRSC02156,3.38e6,3.77e6,3.85e6
Samuel,DRSC02401,2.97e6,3.57e6,3.56e6
Samuel,DRSC02402,3.56e6,4.17e6,3.93e6
Samuel,DRSC21731,3.72e6,4.15e6,4.24e6
Samuel,DRSC23114,3.41e6,4.00e6,3.77e6
B-H2,DRSC19335,2.75e6,3.46e6,3.44e6
B-H2,DRSC23012,3.41e6,4.00e6,3.77e6
CG15221,DRSC19659,3.74e6,4.38e6,4.05e6
sPLA2,DRSC06041,3.53e6,3.98e6,4.04e6
CG9970,DRSC08644,3.45e6,3.91e6,3.93e6
IntS14,DRSC00668,3.85e6,4.39e6,4.36e6
CG14683,DRSC17035,3.38e6,3.81e6,3.82e6
